PubChem BioAssay AID1159597 – NIAID – 2016
Aim: 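Which TLR pathway components are needed for LPS-driven TNF promoter activity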. Cell system: human THP-1 B5 reporter clone (monocytic leukaemia line), PMA-differentiated to macrophage-like cells. Reagent: single siRNA against human genes. Timing: LPS for 4 h before read-out; assayed 48 to 72 h after siRNA transfection. Challenge: LPS (Salmonella minnesota R595) for 4 h; concentration not given. Detection: 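TNF promoter dual luciferase ratio after 4 h LPS, given as a per-plate robust z-score, mean of replicates per siRNA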. Scale: TNF reporter z-score: higher = stronger TNF promoter activity after LPS. Call rule: In these data the active calls have TNF reporter z-score, replicate mean at about -1.5 or lower, or at about 1.53 or higher. Calls: active = clear shift in reporter, either direction; inactive = little shift in reporter.
The whole screen tested 756 reagents; this is an unselected part. 140 of them (19%) were called active. 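Calls mark clear shifts in either direction, lowered or raised; calls are per siRNA, gene-level medians over six siRNAs not deposited.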 The numbers tell different reagents against one gene apart. No sequences are given here. Not stated in the record: the amount of reagent.

What did the screen give for MAPK1 #1?
TNF reporter z-score, replicate mean: -0.282; call: inactive

How did the screen score MAPK1 #2?
TNF reporter z-score, replicate mean: -0.167; call: inactive

Which result is listed for MAPK1 #3?
TNF reporter z-score, replicate mean: 0.503; call: inactive

For MAPK1 #4, how do the results read?
TNF reporter z-score, replicate mean: 1.04; call: inactive

For MAPK1 #5, how do the results read?
TNF reporter z-score, replicate mean: -0.802; call: inactive

What did the screen give for MAPK1 #6?
TNF reporter z-score, replicate mean: -0.204; call: inactive

How did the screen score TLR9 #1?
TNF reporter z-score, replicate mean: -0.985; call: inactive

What did the screen give for TLR9 #2?
TNF reporter z-score, replicate mean: 0.0261; call: inactive

For TLR9 #3, how do the results read?
TNF reporter z-score, replicate mean: -3.32; call: active

What did the screen give for TLR9 #4?
TNF reporter z-score, replicate mean: 0.94; call: inactive

With TLR9 #5, what was measured?
TNF reporter z-score, replicate mean: -0.0951; call: inactive

With TLR9 #6, what does the deposit list?
TNF reporter z-score, replicate mean: 0.0565; call: inactive

For TAB2 #1, how do the results read?
TNF reporter z-score, replicate mean: -0.956; call: inactive

With TAB2 #2, what was measured?
TNF reporter z-score, replicate mean: -1.04; call: inactive

For TAB2 #3, how do the results read?
TNF reporter z-score, replicate mean: -1.24; call: inactive

With TAB2 #4, how do the results read?
TNF reporter z-score, replicate mean: -1.57; call: active

For TAB2 #5, what was measured?
TNF reporter z-score, replicate mean: -2.23; call: active

How did the screen score TAB2 #6?
TNF reporter z-score, replicate mean: -1.03; call: inactive

What is on record for ITGAM #1?
TNF reporter z-score, replicate mean: -1.22; call: inactive

With ITGAM #2, what was measured?
TNF reporter z-score, replicate mean: -0.927; call: inactive

With ITGAM #3, what does the deposit list?
TNF reporter z-score, replicate mean: 0.0983; call: inactive

For ITGAM #4, what was measured?
TNF reporter z-score, replicate mean: -0.758; call: inactive

Which result is listed for ITGAM #5?
TNF reporter z-score, replicate mean: 0.316; call: inactive

With ITGAM #6, what does the deposit list?
TNF reporter z-score, replicate mean: 0.093; call: inactive

With IRF9 #1, what does the deposit list?
TNF reporter z-score, replicate mean: -1.17; call: inactive

For IRF9 #2, what does the deposit list?
TNF reporter z-score, replicate mean: -1.25; call: inactive

How did the screen score IRF9 #3?
TNF reporter z-score, replicate mean: -0.209; call: inactive

How did the screen score IRF9 #4?
TNF reporter z-score, replicate mean: -1.63; call: active

With IRF9 #5, what does the deposit list?
TNF reporter z-score, replicate mean: -0.789; call: inactive

Which result is listed for IRF9 #6?
TNF reporter z-score, replicate mean: -0.798; call: inactive

7 entries from above, ordered by “TNF reporter z-score, replicate mean”, high to low.
ITGAM #5 → TNF reporter z-score, replicate mean: 0.316; call: inactive
ITGAM #3 → TNF reporter z-score, replicate mean: 0.0983; call: inactive
ITGAM #6 → TNF reporter z-score, replicate mean: 0.093; call: inactive
ITGAM #4 → TNF reporter z-score, replicate mean: -0.758; call: inactive
ITGAM #2 → TNF reporter z-score, replicate mean: -0.927; call: inactive
TAB2 #6 → TNF reporter z-score, replicate mean: -1.03; call: inactive
ITGAM #1 → TNF reporter z-score, replicate mean: -1.22; call: inactive

Next results follow:
With MAP3K14 #1, what does the deposit list?
TNF reporter z-score, replicate mean: 0.599; call: inactive

What did the screen give for MAP3K14 #2?
TNF reporter z-score, replicate mean: 0.809; call: inactive

With MAP3K14 #3, how do the results read?
TNF reporter z-score, replicate mean: -2.59; call: active

For MAP3K14 #4, how do the results read?
TNF reporter z-score, replicate mean: -1.11; call: inactive

For MAP3K14 #5, what was measured?
TNF reporter z-score, replicate mean: 0.977; call: inactive

What is on record for MAP3K14 #6?
TNF reporter z-score, replicate mean: 0.156; call: inactive

For TANK #1, how do the results read?
TNF reporter z-score, replicate mean: -0.421; call: inactive

What did the screen give for TANK #2?
TNF reporter z-score, replicate mean: 0.2; call: inactive

For TANK #3, what was measured?
TNF reporter z-score, replicate mean: -0.846; call: inactive

With TANK #4, what was measured?
TNF reporter z-score, replicate mean: 0.359; call: inactive

With TANK #5, how do the results read?
TNF reporter z-score, replicate mean: -1.1; call: inactive

What did the screen give for TANK #6?
TNF reporter z-score, replicate mean: -0.52; call: inactive

With TLR8 #1, how do the results read?
TNF reporter z-score, replicate mean: -0.467; call: inactive

How did the screen score TLR8 #2?
TNF reporter z-score, replicate mean: 1.03; call: inactive

Which result is listed for TLR8 #3?
TNF reporter z-score, replicate mean: -0.289; call: inactive

For TLR8 #4, how do the results read?
TNF reporter z-score, replicate mean: -0.929; call: inactive

With TLR8 #5, what does the deposit list?
TNF reporter z-score, replicate mean: -0.702; call: inactive

Which result is listed for TLR8 #6?
TNF reporter z-score, replicate mean: -0.106; call: inactive
